Results from paper PMC6923955.

Amino acid sequences for entries named in this document (tags omitted).
UniProt P04198: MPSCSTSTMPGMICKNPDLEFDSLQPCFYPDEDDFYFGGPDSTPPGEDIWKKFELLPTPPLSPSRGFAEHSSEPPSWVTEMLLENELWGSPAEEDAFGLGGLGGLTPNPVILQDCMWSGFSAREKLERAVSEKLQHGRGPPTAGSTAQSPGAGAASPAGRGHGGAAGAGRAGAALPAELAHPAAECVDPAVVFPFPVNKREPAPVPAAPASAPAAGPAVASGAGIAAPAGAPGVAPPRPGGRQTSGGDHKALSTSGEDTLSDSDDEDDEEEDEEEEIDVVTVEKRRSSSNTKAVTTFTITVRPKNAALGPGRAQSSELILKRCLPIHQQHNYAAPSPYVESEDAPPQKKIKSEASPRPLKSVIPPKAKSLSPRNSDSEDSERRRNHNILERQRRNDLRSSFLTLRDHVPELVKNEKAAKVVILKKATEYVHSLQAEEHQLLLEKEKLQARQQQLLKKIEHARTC
UniProt P35226: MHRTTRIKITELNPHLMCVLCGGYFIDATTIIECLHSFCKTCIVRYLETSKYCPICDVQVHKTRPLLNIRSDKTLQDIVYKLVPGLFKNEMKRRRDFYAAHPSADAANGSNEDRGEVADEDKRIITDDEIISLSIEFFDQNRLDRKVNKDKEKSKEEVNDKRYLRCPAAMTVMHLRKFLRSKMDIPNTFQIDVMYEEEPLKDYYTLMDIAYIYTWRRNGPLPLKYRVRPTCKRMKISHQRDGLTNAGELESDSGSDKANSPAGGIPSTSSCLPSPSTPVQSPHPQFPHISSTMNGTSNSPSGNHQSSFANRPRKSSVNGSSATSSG
UniProt Q06587: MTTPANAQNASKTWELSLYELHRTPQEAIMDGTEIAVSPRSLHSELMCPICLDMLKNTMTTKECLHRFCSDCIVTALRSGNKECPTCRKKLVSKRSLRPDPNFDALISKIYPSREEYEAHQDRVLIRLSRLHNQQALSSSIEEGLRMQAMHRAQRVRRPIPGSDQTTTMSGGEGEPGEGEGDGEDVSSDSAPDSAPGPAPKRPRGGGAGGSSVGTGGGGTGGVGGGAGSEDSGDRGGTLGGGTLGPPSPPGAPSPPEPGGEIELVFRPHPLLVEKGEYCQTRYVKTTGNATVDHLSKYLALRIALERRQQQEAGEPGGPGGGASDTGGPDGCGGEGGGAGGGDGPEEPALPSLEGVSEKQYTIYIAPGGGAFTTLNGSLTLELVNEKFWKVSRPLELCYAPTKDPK
UniProt Q99496: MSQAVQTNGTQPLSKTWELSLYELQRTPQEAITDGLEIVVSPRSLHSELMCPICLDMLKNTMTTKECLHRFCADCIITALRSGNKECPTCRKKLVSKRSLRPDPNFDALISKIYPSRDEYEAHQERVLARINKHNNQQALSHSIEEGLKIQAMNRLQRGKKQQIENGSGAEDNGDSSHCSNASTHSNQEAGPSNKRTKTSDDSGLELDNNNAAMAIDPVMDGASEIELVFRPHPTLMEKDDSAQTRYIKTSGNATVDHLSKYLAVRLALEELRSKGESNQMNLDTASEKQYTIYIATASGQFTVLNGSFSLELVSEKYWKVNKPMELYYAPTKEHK

Target: MYCN Proto-Oncogene, BHLH Transcription Factor (human (endogenous in BE(2)-C)) (UniProt P04198)
Test: affinity purification with mass spectrometry; BE(2)-C cell lysates immunoprecipitated with an antibody against MYCN on Protein A/G magnetic beads, overnight at 4 °C; lysis buffer 1% NP40, 150 nM NaCl (so in the source), 50 mM Tris-Cl pH 7.2, 1 mM EDTA; eluted with 50 mM glycine pH 2.8, analysed by MS

binding, binds:
BMI1 (from UniProt P35226 1-326)
RING1A (from UniProt Q06587 1-406)
RING1B (from UniProt Q99496 1-336)

These are yes or no findings as the source states them, for the method shown. Binding seen in cells or lysates may run through a third protein. Here binding means that the protein was enriched with, or labelled near, the bait; the list need not be complete.
